Measurements from the supplement of paper PMC10060354, “Discovery of a small molecule ligand of FRS2 that inhibits invasion and tumor growth” (Cellular Oncology, 2022).
Repeats are few or missing, and single values can be far off.

Chains of the proteins cited; added tags and fusions are not shown. Lines headed by an entry give the natural chain unless they say otherwise; changes in a name come on top.
UniProt Q13472: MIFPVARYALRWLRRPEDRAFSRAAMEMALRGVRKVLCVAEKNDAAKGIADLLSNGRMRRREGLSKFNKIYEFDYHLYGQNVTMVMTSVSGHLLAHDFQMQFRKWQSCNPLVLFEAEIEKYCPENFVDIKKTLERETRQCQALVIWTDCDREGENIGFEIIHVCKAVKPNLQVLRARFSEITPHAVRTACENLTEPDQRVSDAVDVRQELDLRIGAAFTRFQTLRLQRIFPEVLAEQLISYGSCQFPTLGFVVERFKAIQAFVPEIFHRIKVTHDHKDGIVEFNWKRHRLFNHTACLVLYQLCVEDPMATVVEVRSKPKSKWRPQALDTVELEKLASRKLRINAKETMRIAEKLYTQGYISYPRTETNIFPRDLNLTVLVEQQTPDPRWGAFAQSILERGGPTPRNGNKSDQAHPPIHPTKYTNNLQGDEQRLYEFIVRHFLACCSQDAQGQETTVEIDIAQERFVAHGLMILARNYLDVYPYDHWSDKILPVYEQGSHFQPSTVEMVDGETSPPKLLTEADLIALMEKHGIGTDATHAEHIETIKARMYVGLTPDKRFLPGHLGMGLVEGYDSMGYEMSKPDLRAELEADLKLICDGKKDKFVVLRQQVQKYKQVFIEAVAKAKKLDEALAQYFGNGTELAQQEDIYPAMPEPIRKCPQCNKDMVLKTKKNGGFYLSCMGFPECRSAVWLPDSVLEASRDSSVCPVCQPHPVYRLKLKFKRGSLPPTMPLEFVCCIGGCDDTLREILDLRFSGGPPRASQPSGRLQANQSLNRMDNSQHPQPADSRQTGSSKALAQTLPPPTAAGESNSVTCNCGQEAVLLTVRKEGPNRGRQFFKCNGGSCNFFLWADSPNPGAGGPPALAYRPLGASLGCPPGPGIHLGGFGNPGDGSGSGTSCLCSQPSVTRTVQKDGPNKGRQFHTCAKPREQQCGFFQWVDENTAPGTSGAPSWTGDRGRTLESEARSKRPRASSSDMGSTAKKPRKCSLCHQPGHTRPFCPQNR
UniProt Q96EQ0: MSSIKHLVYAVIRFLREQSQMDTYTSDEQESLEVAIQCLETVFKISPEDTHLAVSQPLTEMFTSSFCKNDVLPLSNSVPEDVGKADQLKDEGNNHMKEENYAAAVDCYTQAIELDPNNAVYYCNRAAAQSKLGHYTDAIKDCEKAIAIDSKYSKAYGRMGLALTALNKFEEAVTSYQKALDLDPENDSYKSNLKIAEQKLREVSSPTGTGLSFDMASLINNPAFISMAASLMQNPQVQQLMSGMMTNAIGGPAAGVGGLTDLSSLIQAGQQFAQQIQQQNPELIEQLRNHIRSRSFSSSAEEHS
UniProt Q9NPE3: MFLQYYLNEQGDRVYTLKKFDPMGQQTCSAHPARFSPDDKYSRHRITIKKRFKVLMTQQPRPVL
UniProt P48960: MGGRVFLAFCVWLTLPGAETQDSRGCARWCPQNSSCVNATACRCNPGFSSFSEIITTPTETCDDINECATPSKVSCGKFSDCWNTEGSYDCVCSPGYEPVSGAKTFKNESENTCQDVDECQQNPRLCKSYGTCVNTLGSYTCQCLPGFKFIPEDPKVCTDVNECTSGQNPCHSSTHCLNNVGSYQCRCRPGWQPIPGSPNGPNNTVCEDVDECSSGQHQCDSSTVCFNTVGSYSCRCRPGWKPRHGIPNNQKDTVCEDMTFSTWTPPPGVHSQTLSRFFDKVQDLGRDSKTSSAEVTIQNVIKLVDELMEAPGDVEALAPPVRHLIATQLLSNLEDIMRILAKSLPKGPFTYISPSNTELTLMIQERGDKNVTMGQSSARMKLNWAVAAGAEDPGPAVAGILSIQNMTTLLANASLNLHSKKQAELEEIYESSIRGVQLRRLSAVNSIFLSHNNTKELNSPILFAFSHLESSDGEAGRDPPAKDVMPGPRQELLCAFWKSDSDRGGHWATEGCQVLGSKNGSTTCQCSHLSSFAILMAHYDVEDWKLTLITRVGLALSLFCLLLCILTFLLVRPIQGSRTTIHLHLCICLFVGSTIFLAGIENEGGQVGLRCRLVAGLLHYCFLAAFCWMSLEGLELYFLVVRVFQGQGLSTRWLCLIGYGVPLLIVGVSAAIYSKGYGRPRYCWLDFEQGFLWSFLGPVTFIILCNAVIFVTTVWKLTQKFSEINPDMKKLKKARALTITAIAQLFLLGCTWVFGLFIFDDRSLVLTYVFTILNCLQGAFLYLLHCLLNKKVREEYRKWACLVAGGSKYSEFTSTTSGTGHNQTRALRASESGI
UniProt P51911: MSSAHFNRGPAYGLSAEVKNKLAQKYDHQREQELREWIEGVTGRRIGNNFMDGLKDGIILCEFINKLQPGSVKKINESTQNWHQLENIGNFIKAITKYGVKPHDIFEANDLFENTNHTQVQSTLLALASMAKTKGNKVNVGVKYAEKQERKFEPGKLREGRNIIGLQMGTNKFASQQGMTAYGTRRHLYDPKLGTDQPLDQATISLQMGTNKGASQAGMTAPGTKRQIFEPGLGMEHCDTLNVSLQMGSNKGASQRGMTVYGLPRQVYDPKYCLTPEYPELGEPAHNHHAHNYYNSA
UniProt Q02809: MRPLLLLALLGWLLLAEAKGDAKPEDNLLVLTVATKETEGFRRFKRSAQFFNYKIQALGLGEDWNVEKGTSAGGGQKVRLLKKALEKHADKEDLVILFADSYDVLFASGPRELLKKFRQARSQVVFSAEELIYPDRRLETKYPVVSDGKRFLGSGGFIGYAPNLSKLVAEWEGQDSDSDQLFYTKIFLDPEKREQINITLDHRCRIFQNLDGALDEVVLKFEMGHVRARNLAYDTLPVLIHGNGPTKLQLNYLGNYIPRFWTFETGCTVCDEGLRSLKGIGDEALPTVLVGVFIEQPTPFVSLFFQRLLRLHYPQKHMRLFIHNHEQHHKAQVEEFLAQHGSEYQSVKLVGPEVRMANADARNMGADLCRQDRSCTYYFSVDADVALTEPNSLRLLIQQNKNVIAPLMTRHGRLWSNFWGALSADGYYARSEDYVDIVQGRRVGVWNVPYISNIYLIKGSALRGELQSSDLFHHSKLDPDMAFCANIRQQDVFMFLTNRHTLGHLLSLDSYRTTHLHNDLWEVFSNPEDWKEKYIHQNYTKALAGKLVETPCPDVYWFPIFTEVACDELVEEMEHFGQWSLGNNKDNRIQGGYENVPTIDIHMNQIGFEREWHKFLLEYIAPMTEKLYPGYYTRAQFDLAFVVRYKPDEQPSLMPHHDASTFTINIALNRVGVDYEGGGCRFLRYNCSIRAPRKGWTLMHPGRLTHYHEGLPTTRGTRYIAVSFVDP
UniProt Q15642: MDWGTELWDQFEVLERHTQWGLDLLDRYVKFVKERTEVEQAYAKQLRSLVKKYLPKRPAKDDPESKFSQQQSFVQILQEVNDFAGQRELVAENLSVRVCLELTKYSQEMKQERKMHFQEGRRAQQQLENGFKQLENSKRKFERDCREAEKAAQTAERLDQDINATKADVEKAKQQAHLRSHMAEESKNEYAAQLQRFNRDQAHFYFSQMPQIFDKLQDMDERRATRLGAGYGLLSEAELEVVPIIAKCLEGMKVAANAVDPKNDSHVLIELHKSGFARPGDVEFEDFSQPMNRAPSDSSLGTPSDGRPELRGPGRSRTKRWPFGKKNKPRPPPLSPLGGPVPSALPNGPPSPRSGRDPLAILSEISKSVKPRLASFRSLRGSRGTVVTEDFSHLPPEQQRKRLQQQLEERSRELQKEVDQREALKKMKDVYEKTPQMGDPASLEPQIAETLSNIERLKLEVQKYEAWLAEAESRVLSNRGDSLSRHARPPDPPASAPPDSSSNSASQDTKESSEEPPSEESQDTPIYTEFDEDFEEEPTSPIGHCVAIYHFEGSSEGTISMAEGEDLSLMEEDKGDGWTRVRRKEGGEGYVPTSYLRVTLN
UniProt Q13356: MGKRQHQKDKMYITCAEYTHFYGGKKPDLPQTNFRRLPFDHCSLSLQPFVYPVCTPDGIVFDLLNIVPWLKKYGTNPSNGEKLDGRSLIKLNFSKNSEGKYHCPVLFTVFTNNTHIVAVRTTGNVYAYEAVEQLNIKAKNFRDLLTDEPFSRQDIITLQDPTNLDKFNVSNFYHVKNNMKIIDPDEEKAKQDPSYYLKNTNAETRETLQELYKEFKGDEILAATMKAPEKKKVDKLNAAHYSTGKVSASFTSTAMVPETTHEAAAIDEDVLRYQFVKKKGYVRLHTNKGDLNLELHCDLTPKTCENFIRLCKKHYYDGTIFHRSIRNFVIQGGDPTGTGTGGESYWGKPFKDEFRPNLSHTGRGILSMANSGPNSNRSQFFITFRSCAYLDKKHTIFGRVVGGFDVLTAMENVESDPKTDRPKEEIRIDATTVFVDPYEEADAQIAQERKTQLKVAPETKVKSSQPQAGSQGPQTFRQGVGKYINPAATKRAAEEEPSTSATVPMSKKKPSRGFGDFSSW
UniProt O14983: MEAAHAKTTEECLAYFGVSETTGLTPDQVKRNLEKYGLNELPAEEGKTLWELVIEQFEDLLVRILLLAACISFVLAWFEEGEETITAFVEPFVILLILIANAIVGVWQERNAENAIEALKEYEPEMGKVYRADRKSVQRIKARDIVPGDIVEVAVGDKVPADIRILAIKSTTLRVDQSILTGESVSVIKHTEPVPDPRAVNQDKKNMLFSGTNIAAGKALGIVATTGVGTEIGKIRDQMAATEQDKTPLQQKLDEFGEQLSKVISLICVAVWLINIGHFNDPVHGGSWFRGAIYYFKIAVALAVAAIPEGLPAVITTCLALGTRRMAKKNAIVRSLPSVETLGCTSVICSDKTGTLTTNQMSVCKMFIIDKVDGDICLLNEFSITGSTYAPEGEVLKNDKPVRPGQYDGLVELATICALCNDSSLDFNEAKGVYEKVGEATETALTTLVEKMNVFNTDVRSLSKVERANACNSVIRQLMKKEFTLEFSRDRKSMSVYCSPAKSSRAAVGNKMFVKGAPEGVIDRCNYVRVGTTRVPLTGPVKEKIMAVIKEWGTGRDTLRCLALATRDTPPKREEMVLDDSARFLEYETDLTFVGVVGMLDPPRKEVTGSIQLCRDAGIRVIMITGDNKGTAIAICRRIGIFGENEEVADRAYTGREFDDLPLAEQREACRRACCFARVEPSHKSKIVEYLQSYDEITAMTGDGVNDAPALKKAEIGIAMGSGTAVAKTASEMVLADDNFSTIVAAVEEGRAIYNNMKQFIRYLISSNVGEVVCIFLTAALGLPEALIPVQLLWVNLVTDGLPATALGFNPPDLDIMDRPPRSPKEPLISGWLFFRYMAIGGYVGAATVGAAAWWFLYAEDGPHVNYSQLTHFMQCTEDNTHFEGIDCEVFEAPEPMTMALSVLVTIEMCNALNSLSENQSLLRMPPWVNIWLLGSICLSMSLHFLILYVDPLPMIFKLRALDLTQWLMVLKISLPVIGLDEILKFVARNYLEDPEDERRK
UniProt Q86W50: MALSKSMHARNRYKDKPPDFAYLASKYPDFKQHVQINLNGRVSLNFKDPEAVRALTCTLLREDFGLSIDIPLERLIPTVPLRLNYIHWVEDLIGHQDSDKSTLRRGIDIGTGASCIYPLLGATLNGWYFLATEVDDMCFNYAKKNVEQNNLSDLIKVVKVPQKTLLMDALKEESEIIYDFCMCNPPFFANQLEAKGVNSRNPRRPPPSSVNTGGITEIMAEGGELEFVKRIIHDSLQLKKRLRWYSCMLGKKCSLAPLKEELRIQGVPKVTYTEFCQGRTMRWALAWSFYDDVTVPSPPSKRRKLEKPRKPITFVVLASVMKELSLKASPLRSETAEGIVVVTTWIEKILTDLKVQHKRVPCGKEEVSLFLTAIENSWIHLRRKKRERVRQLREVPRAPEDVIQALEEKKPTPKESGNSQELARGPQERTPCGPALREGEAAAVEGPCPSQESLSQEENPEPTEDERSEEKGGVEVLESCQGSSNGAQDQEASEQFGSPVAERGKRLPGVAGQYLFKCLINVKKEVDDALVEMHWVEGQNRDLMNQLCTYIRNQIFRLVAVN
UniProt P47974: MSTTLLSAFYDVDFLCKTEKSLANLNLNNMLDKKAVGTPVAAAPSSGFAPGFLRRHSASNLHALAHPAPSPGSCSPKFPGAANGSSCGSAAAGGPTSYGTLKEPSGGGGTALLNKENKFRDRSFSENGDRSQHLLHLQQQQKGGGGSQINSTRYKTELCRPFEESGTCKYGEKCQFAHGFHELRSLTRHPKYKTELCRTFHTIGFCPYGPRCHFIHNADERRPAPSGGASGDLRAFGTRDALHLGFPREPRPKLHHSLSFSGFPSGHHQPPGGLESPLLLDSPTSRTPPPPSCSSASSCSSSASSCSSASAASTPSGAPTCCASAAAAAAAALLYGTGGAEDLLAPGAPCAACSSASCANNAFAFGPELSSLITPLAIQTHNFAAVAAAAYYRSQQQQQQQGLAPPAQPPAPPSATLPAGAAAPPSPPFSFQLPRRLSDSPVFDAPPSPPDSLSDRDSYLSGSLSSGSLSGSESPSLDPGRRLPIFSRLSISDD
UniProt Q13442: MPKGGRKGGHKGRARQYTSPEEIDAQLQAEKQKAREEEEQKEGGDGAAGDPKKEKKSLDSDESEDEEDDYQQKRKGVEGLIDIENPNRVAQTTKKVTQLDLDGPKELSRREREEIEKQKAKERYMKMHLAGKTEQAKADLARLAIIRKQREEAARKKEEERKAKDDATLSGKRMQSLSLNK

Compound: [O-][N+](C(C1=C(C(O)=C2)NC(C(C=C3)=CC=C3Cl)C4C1C=CC4)=C2Cl)=O
Assay: melting temperature shift (compound 7 minus DMSO); higher = compound stabilises the protein
Conditions: 10 µM
Experimental: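 Thermal proteome profiling (TMT mass spectrometry) in intact DAOY medulloblastoma cells or DAOY lysates treated with 10 µM compound 7 or DMSO, heated at 10 temperatures from 40.5 to 73.8 °C for 3 min. Melting curves were fitted with the Bioconductor TPP package, and the melting point difference between compound and vehicle is reported per protein (single curve per condition).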

[1] = system: DAOY cell lysate, treatment time: 20 min, 4 °C
[2] = system: intact DAOY cells, treatment time: 90 min, 37 °C

Target	melting temperature shift [1] [°C]	melting temperature shift [2] [°C]
TOP3A (UniProt Q13472)	-1.18	–
UniProt Q9Y2J2	0.97	-0.127
UniProt Q8NF91	-1.91	–
CNN2 (UniProt Q99439)	-0.496	-0.356
SGTB (UniProt Q96EQ0)	-1.43	-1.01
RAP2B (UniProt P61225)	1.22	-4.44
UniProt P58876	–	-0.494
KCNAB2 (UniProt Q13303)	-0.386	–
ANXA1 (UniProt P04083)	-0.0347	0.155
TRIOBP (UniProt Q9H2D6)	-1.15	–
ALDH1A3 (UniProt P47895)	-0.0297	-0.913
MAN1A1 (UniProt P33908)	-0.976	-2.89
ARPC1B (UniProt O15143)	-1.49	-0.0284
CYBA (UniProt P13498)	1.93	-1.06
SUPT16H (UniProt Q9Y5B9)	-0.0594	-0.215
UniProt Q8N196	–	0.26
DCTN6 (UniProt O00399)	–	0.23
NOP10 (UniProt Q9NPE3)	0.487	–
IDH3G (UniProt P51553)	-0.347	–
UniProt Q8IX95	–	0.161

Target	melting temperature shift [1] [°C]	melting temperature shift [2] [°C]
UniProt P02452	1.33	0.0277
OPHN1 (UniProt O60890)	0.299	–
CD97 (UniProt P48960)	0.227	-0.915
ARFIP2 (UniProt P53365)	-0.979	-0.62
DFFA (UniProt O00273)	-0.306	0.313
TSSC1 (UniProt Q53HC9)	0.301	0.66
UniProt A4QPH2	0.201	–
CD2AP (UniProt Q9Y5K6)	-0.371	0.135
UniProt P51911	-0.353	-0.464
PLOD1 (UniProt Q02809)	0.967	0.519
GFM1 (UniProt Q96RP9)	-0.0164	-0.064
GNPNAT1 (UniProt Q96EK6)	-0.969	-0.797
BRI3BP (UniProt Q8WY22)	-0.101	–
THUMPD1 (UniProt Q9NXG2)	-2.21	0.114
TRIP10 (UniProt Q15642)	-0.496	-0.481
ACOT9 (UniProt Q9Y305)	0.241	0.442
TBC1D9B (UniProt Q66K14)	-0.0105	–
RPL3 (UniProt P39023)	0.0412	-0.498
UniProt Q99666	1.33	–
PPIL2 (UniProt Q13356)	–	4.77

Quoted from above (15 entries):
Target	melting temperature shift [1] [°C]	melting temperature shift [2] [°C]
TSSC1 (UniProt Q53HC9)	0.301	0.66
UniProt A4QPH2	0.201	–
CD2AP (UniProt Q9Y5K6)	-0.371	0.135
UniProt P51911	-0.353	-0.464
PLOD1 (UniProt Q02809)	0.967	0.519
GFM1 (UniProt Q96RP9)	-0.0164	-0.064
GNPNAT1 (UniProt Q96EK6)	-0.969	-0.797
BRI3BP (UniProt Q8WY22)	-0.101	–
THUMPD1 (UniProt Q9NXG2)	-2.21	0.114
TRIP10 (UniProt Q15642)	-0.496	-0.481
ACOT9 (UniProt Q9Y305)	0.241	0.442
TBC1D9B (UniProt Q66K14)	-0.0105	–
RPL3 (UniProt P39023)	0.0412	-0.498
UniProt Q99666	1.33	–
PPIL2 (UniProt Q13356)	–	4.77

Next records follow.

Target	melting temperature shift [1] [°C]	melting temperature shift [2] [°C]
ZHX3 (UniProt Q9H4I2)	-0.216	–
UniProt O14983	–	-0.873
OSBPL11 (UniProt Q9BXB4)	-0.635	1.97
GAPDH (UniProt P04406)	-1.17	-0.593
ABCC1 (UniProt P33527)	0.342	-1.26
RPL30 (UniProt P62888)	-1.17	-0.227
C15ORF40 (UniProt Q8WUR7)	0.66	–
METTL16 (UniProt Q86W50)	-1.42	-0.437
CNOT7 (UniProt Q9UIV1)	-0.614	–
ZFP36L2 (UniProt P47974)	-0.786	2.62
RAB1A (UniProt P62820)	0.717	–
PEX3 (UniProt P56589)	0.257	-1.28
ARHGEF7 (UniProt Q14155)	-0.278	-0.963
AARS2 (UniProt Q5JTZ9)	1.52	-2.29
PDAP1 (UniProt Q13442)	-2.76	–
TMEM245 (UniProt Q9H330)	0.298	-0.887
MTFR1 (UniProt Q15390)	1.55	–
DPH2 (UniProt Q9BQC3)	-0.88	1.13
GTPBP4 (UniProt Q9BZE4)	0.438	2.07
